The other results are listed elsewhere or left out.
System: T1, CTL2-GFP (C. trachomatis L2/434/Bu, GFP-expressing)
T1 construct: L2/434/Bu, GFP-expressing
Set-up: species or system HeLa; Intracellular C. trachomatis growth in HeLa cells, bulk GFP fluorescence relative to DMSO
Conditions: bulk GFP, single well; 28.5 h, 10 µM; inhibitor

Compound | % of control remaining [%]
COc1ccc([C@@]23CCN(C(=O)Nc4ccc(F)c(F)c4F)C[C@@H]2CN(C)C3)cc1OC [CBK074305T] | 87.0802
COC(=O)c1ccc(N2CCN(Cc3cnoc3C)C(C)C2)cc1 (centres unmarked) [CBK306442] | 117.761
CCn1c(SCC(N)=O)nnc1C(C)Oc1ccc(C)c(C)c1 (centres unmarked) [CBK270289] | 169.728
Cc1cc(C)c2c(n1)oc1c(Cl)ncnc12 [CBK008822] | 139.654
O=C(Nc1cccc(Cl)c1Cl)c1cnccn1 [CBK288243] | 109.181
CCN1CC2(CCCN(Cc3cncn3C3CCCCC3)C2)CCC1=O (centres unmarked) [CBK307223] | 118.047
O=C(COc1ccccc1)N1CCN(Cc2ccccn2)CC1 [CBK073265G] | 100
Nc1nnc(C(F)(F)F)o1 [CBK023457] | 88.401
CC(=O)Nc1ccc(-c2cncc(N(CCO)CCO)n2)cc1 [CBK065789] | 166.186
Cc1csc2c(N3CCC(OCCN4CCCC4)CC3)ncnc12 [CBK304095] | 93.9372
CCN(Cc1ccccc1)C(=O)NCCCSC [CBK155214] | 100
Cc1ccc(-c2nccnc2OC2CCCCC2)c(C)c1 [CBK106983] | 114.528
COc1cccc(CCNCC(O)COc2ncnc3ccccc23)c1 (centres unmarked) [CBK028127T] | 117.546
CCN(CC)CCN1CCN(c2cc(-c3cccnc3)ncn2)CC1 [CBK036957] | 96.4091
CC1=C(C(=O)Nc2ccccc2)C(c2ccccc2)C(C#N)=C(SCc2ccncc2)N1 (centres unmarked) [CBK267448] | 142.321
O=C(NC(c1ccc(-c2ccccc2)cc1)c1cnccn1)C1CCN(CCCN2C(=O)C3CCCCC3C2=O)CC1 (centres unmarked) [CBK147856] | 99.1709
O=C(NCCc1c[nH]c2ccc(Cl)cc12)c1ccc(Cl)cc1Br [CBK159755] | 10.3072
CCN(CC)CCNC(=O)c1cccc(Nc2cncc(-c3ccc(O)cc3)n2)c1 [CBK122671] | 123.16
O=C(Nc1nc(-c2cccnc2)cs1)c1cccc(N2C(=O)CCC2=O)c1 [CBK287564] | 108.118
CCn1ncc2c1CCCC2NC1CCN(CC(F)(F)F)C1=O (centres unmarked) [CBK305206] | 121.904
O=C(O)CC(Cc1ccc(Br)cc1)C(=O)Nc1ccccc1 (centres unmarked) [CBK262714] | 103.557
O=C1NC2(CCc3ccccc31)CCN(C/C=C/c1cccnc1)C2 (centres unmarked) [CBK284622] | 167.12
O=S(=O)(CCSc1ccc(Cl)cc1)Oc1ccccc1 [CBK261021] | 94.044
Cc1nc(C2CCCN(C(=O)CCn3cccn3)C2)c2sccn12 (centres unmarked) [CBK285234] | 137.555
COC(=O)C(=O)N1CC[C@H]2NC(=O)N(c3ccc(C(C)C)cc3)C(=O)[C@H]21 [CBK289287] | 108.598
Cc1cc(C)cc(OCC(=O)Nc2ccc3[nH]c(=O)[nH]c3c2)c1 [CBK269676] | 104.11
CCSc1nnc(-c2cccnc2)n1Cc1ccccc1 [CBK076664] | 133.474

Reprinted at random: 3 records from the list.
Compound | % of control remaining [%]
Cc1csc2c(N3CCC(OCCN4CCCC4)CC3)ncnc12 [CBK304095] | 93.9372
CC(=O)Nc1ccc(-c2cncc(N(CCO)CCO)n2)cc1 [CBK065789] | 166.186
CCn1ncc2c1CCCC2NC1CCN(CC(F)(F)F)C1=O (centres unmarked) [CBK305206] | 121.904

Following part.

Compound | % of control remaining [%]
Cn1cc(C2CCCCCN2S(=O)(=O)c2ccc(F)cc2)cn1 (centres unmarked) [CBK284739] | 96.4851
COc1cc(CN(C)Cc2cccc3ccccc23)c([N+](=O)[O-])cc1OC [CBK261850] | 95.6249
Cc1nc(NS(=O)(=O)c2ccc(Oc3ccccc3)cc2)sc1C(=O)O [CBK045566] | 134.389
CC(C)NC(=O)/C(=C/c1c[nH]c2ncccc12)c1ccccc1 [CBK115357] | 127.606
CC(C)C(=O)N1CCC(c2nc3ccc(F)cc3cc2N)CC1 [CBK284656] | 156.022
COc1ncccc1CNC(=O)Cn1ccc(=O)[nH]c1=O [CBK305596] | 98.7931
Cc1ccc2c(c1)OC1(CCN(C(=O)c3cc4c(C)nn(C)c4s3)CC1)CC2=O [CBK166037] | 113.67
CCCOc1ccc(C(CC(=O)O)NS(=O)(=O)c2ccc(F)cc2)cc1 (centres unmarked) [CBK287139] | 100
COc1ccccc1NC(=S)NCCc1ccc(S(N)(=O)=O)cc1 [CBK266201] | 126.701
Cc1cc(COc2nccnc2N2CCN(CCCC#N)CC2)no1 [CBK084198] | 114.407
Cn1cc(CNC(=O)Nc2cc(C(=O)N3CCOCC3)ccc2Cl)cn1 [CBK307080] | 121.713
CC(C)n1nccc1NC(=O)CCn1ccnc1-c1ccccc1 [CBK281536] | 136.005
O=C(O)c1ccc(CSc2nc3ccccc3[nH]2)cc1 [CBK286892] | 126.397
O=C(NCc1cccnc1)c1cc(S(=O)(=O)N2CCCC2)c(Cl)cc1Cl [CBK264455] | 97.788
CC(C)(C)c1cc(NC(=O)CN2CCN(c3cccc(Cl)c3)CC2)on1 [CBK304525] | 135.247
CC(C)c1nc(NCc2nnc3n2CCC3)nc(N(C)C)n1 [CBK305117] | 133.708
COc1ccc(CSCC(N)C(=O)O)cc1Br (centres unmarked) [CBK264026] | 119.713
O=C(N[C@H]1C[C@H]2C(=O)Nc3ccccc3C(=O)N2C1)c1cccnc1 [CBK289356] | 98.8237
O=C(NCCn1nc2c(cc1=O)CCCCC2)c1ccc(F)cc1 [CBK283279] | 103.445
CCCOc1ccc(S(=O)(=O)NCc2ccncc2)c2ccccc12 [CBK268780] | 122.728
CCN(CC)C(=O)c1[nH]c2ccccc2c1NS(=O)(=O)c1c(C)noc1C [CBK050117] | 123.925
Cc1cc(C)n(-c2nc(NC(C)(C)C)nc(N3CCOCC3)n2)n1 [CBK269810] | 106.222
COc1ccc2[nH]c([C@H]3CCN(S(C)(=O)=O)C3)nc2c1 [CBK289377] | 108.922
O=C(O)C1CCN(Cc2cnnn2-c2ccccc2F)CC1 [CBK287197] | 132.525
COc1ccccc1CN(CCCn1ccnc1)Cc1ccoc1 [CBK283123] | 113.824
CCC(C)NC1=NC(=O)C(CC(=O)N(C)c2ccccc2)S1 (centres unmarked) [CBK059110T] | 118.137
CCn1cc(-c2cncn2CCCn2nc(C)cc2C)cn1 [CBK281770] | 87.9224

Compound | % of control remaining [%]
Cc1cccc(C(C)CNC(=O)N2CCC(Cc3cnn(C)c3)C2)c1 (centres unmarked) [CBK305301] | 83.1725
CC(C)(C)c1ccc(OCC(=O)Nn2cnnc2)cc1 [CBK027576] | 148.014
COCCCOc1cc(NC(C)C)ncn1 [CBK115885] | 123.188
c1ccc(-c2nccnc2OCCc2cccs2)cc1 [CBK106673] | 100
CCS(=O)(=O)N1C[C@H]2CC[C@](O)(c3ccc(C)cc3)[C@H]2C1 [CBK285296] | 89.9849
Cc1ccccc1C(=O)NCC(=O)Nc1cc2ccccc2c(Br)n1 [CBK063298] | 103.628
CCCc1c(C(=O)NC2CC2)cnn1-c1ccc(Cl)cc1 [CBK006334] | 112.6
CNc1cc(N2CCN(S(=O)(=O)c3ccc(C)cc3)CC2)ccc1[N+](=O)[O-] [CBK266005] | 87.8024
CN1CCN(C(=O)Cc2csc(-c3ccc(Cl)cc3)n2)CC1 [CBK107301] | 124.851
COc1ccc(C(=O)N2CCC3(CCN(CCN4CCCCC4)C3)C2)cc1OC (centres unmarked) [CBK137113T] | 117.746
CC(C)(C)c1ccc(C(=O)Nc2cnn(CCCC(=O)O)c2)cc1 [CBK269929] | 114.579
NC(=O)CN1CC2(CCN(CCS(=O)(=O)c3ccccc3)CC2)c2ccccc21 [CBK126786] | 125.623
CC(=O)N1CCC(Cn2nc(-c3ccccc3)ccc2=O)CC1 [CBK282405] | 101.02
Cc1cc(C(=O)N2CCC(c3nnc(CN(C)C)n3C)CC2)ccc1F [CBK306748] | 100.158
FC(F)(F)Oc1ccc(-c2c[nH]c([C@@H]3COCCN3Cc3c[nH]cn3)n2)cc1 [CBK289303] | 72.8026
CCOC(=O)CN1C(=O)S/C(=C/c2cc(Cl)c(OCC(=O)O)c(Br)c2)C1=O [CBK264614] | 100
CCOC(=O)c1cnn(C2CCCN(Cc3cnnn3C)C2)c1 (centres unmarked) [CBK305122] | 103.739
CN(C)S(=O)(=O)NCCc1ccc(S(N)(=O)=O)cc1 [CBK022388] | 151.987
CN1CCCN(Cc2ccc3c(c2)c(=O)c(C(=O)NCc2ccc(Cl)cc2)cn3C)CC1 [CBK018019] | 115.522
O=C(c1sc2ccccc2c1Cl)N1CCN(CCN2C(=O)c3cccc4cccc(c34)C2=O)CC1 [CBK262557] | 110.866
CCCCC(=O)NC(Nc1cc(C)ccn1)(C(F)(F)F)C(F)(F)F [CBK009331] | 154.261
CCCn1ccnc1CNc1nc(C(C)(C)C)nc2c1cnn2C [CBK306739] | 123.058
Cc1cc2c(cc1S(=O)(=O)NCCOc1cccc(C(=O)O)c1)OCC(=O)N2 [CBK299770] | 173.238
C=C(C)Cn1nc(C)c(CN(C)CCN2CCCCC2)c1C [CBK282483] | 128.352
CN(C)c1ccc(C(=O)N2CC[C@@H](CC(=O)O)[C@@H](CC3=NCCc4ccccc43)C2)cc1 [CBK289159] | 143.449
CN(c1cccc(C#N)c1)C1CCN(c2nc3c(cnn3C)c(=O)[nH]2)C1 (centres unmarked) [CBK305462] | 105.303

Source: PMC12040169 (PLOS Biology, 2025)
